# Measured values as given in PMC10653843.
# Numbering of substitutions follows the chain as printed. Names may count otherwise. No constants are given. Whether binding was seen depends on the method and setting. In cells and extracts the contact can be indirect. A result given as binding can be weak or reduced; the word gives no strength.
# B1: human PSGL-1 (protein, UniProt Q14242 42-412)
# chain: QATEYEYLDYDFLPETEPPEMLRNSTDTTPLTGPGTPESTTVEPAARRSTGLDAGGAVTELTTELANMGNLSTDSAAMEIQTTQPAATEAQTTQPVPTEAQTTPLAATEAQTTRLTATEAQTTPLAATEAQTTPPAATEAQTTQPTGLEAQTTAPAAMEAQTTAPAAMEAQTTPPAAMEAQTTQTTAMEAQTTAPEATEAQTTQPTATEAQTTPLAAMEALSTEPSATEALSMEPTTKRGLFIPFSVSSVTHKGIPMAASNLSVNYPVGAPDHISVKQCLLAILILALVATIFFVCTVVLAVRLSRKGHMYPVRNYSPTEMVCISSLLPDGGEGPSATANGGLSKAKSPGLTPEPREDREGDDLTLHSFLP
# B2: human PSGL-1 T379A (protein, UniProt Q14242 42-412)
# chain: B1 chain with T338A
# Target: Myc-Vpu (HIV-1)
# Experiment: co-IP; two batches of HEK293T cells transfected separately (FLAG-tagged hPSGL-1 WT or T379A; Myc-Vpu or Myc-Vpu A14L), lysates mixed, Vpu precipitated with anti-Myc magnetic beads overnight at 4°C; Western blot
row,Binder,binding
1,B1,binds
2,B2,no binding
